Reference: patent US5627154A, “Calcium channel blocking polypeptides from Heteropoda venatoria” (Pfizer Inc., priority 1995, dated 1997)

Test system: calcium channels
Conditions: read-out: IC50 values for blocking calcium channels; cerebellar granule cells from 8 day old rats, fura2 fluorescence, 37° C.

COC(=O)C1=C(C)NC(C)=C(C(=O)OC)C1c1ccccc1[N+](=O)[O-] [Nifedipine]
IC50: 33 nM
